At least one read-out could not be matched to a standard name with certainty.
Test system: Rat Pancreatic Acinar Carcinoma (CA20948)
Test: In vivo fluorescence imaging of rat pancreatic acinar carcinoma (CA20948) expressing the SST-2 receptor
Design: species or system Lewis rat
Details: 500 μL of 1.0 mg/mL in 25% dimethylsulfoxide in water
Description: A non-invasive in vivo fluorescence imaging apparatus was employed to assess the efficacy of contrast agents developed for tumor detection in animal models. A LaserMax Inc. laser diode of nominal wavelength 780 nm and nominal power of 40 mW was used. The detector was a Princeton Instruments model RTE/CCD-1317-K/2 CCD camera with a Rodenstock 10 mm F2 lens (stock #542.032.002.20) attached. An 830 nm interference […] (CVI Laser Corp., part # F10-830-4-2) was mounted in front of the CCD input lens such that only emitted fluorescent light from the contrast agent was imaged. Typically, an image of the animal was taken pre-injection of contrast agent. […]
(§1) The imaging apparatus and the procedure used are described in Example 9. Rat pancreatic acinar carcinoma expressing the SST-2 receptor (CA20948) were induced by solid implant technique in the left flank area and palpable masses were detected 9 days post implant.
as §1, with “Example 9 except that each animal received 500 μL of a 1.0 mg/mL solution of Cytate 1 solution of 25% dimethylsulfoxide in water.” for “Example 9.”, “detected 24” for “detected 9”, “implant. […]” for “implant.”
Cytate 1 was evaluated in the CA20948 Lewis rat model. […]

## C[C@@H](O)[C@H](NC(=O)[C@@H]1CSSC[C@H](NC(=O)[C@@H](Cc2ccccc2)NC(=O)CC[N+]2=C(/C=C/C=C/C=C/C=C3/N(CCC(=O)O)c4ccc5ccccc5c4C3(C)C)C(C)(C)c3c2ccc2ccccc32)C(=O)N[C@@H](Cc2ccc(O)cc2)C(=O)N[C@H](Cc2c[nH]c3ccccc23)C(=O)N[C@@H](CCCCN)C(=O)N[C@@H]([C@@H](C)O)C(=O)N1)C(=O)O [Cytate 1, monoOctreotate-Bisethylcarboxymethylindocyanine dye]
  time of maximal uptake into the tumor: about 5 minutes

Source: patent US6217848A, “Cyanine and indocyanine dye bioconjugates for biomedical applications” (Mallinckrodt Inc., priority 1999, dated 2001)
